For at least one compound, name, drawing or mass did not settle the structure.
Test system: androgenetic alopecia (SA) rat model
Test: Androgenetic alopecia (SA) rat model induced by testosterone propionate
Type: in vivo, Wistar rats
Details: rats, P<0.01
Description: SPF grade Wistar rats were selected and randomly divided into compound group 1 (skin applied with 5% R-IMPP solution), compound group 2 (skin applied with 5% PF 06446846 solution), and compound group 3 (skin applied with 5% SBC-115076 solution), compound group 4 (skin applied with 5% SBC-110736 solution), monoclonal antibody group 1 (subcutaneous injection of PCSK9 monoclonal antibody ab84041, 5 mg/kg·d), monoclonal antibody group 2 (subcutaneous injection of Evolocumab, 5 mg/kg·d), monoclonal antibody group 3 (subcutaneous injection of Alirocumab, 5 mg/kg·d), PCSK9 RNAi inhibitor group-1 (skin applied with 5% PCSK9 small interfering RNA-1 solution), PCSK9 RNAi inhibitor group-2 (skin applied with 5% PCSK9 small interfering RNA-2 solution), PCSK9 RNAi inhibitor group-3 (skin applied with 5% PCSK9 small interfering RNA-3 solution), and polypeptide group (subcutaneous injection of Abcam company ab32727, 3 mg/kg·d), positive control group (skin smeared with 5% minoxidil tincture), negative control group (smeared with 75% ethanol), model control group (smeared with 75% ethanol), 10 rats in each group, half male and half female. […]
10 hairs were extracted from the observation area on the back of each rat every 15 days after administration, and the hair length was measured with a vernier caliper. […] Semi-quantitative analysis was carried out in each group. […]

Question: Nc1cc(N2CCCCC2)nc(N)[n+]1[O-] [Positive control group, minoxidil] was tested. Which “lesions of skin dermal tissue cells, subcutaneous hair follicles, and sebaceous glands compared with the model control group” value did it give?
Answer: The value was “significantly reduced”.
